# Reference: the supplement of paper PMC8728848
# The list shows a part of the results.
# B1: Awp3 (Candida glabrata), B4UN32 (protein)
# chain: MISFVTLLAILGLLSISWADQTVRSVAGDQRVTDPVIVGDNSILDYYGGSNYDFSNNFEIGRGTLYIGKESYFSSFQSAPTDVPNSFHLLIKNTNNLQNNGQFIIENIKRHANQCSNSSIQVFPINFQNDGEFEIISGGVEGRCCLPTSVIAPQNFLNNGKFYYKVLTDTGSIYSGSCMQNVDIGASTTTTVNNNLWEFTGSINAQINGAVSGAAQINLDGSNMFVNANTFSGQVVNLINGGSFLQTSDPLSNIVVINGLGTSDTGVTSIAVKGKGKSFTYNPSSGIVKLTTVEGKTYAYQIGCGYNTKKFITNNDSGASYESADNFFVLTYSEPYSPQTCQLENSSIFSSNFISTSTSSSSSSSSASSLPSSMSSSLPSSLSSSLSSSLSSSMSSSMSSLFIIPPPYTTTRSSGSSIIDTEIVSFYSTTDSPGHTITGTTTTTLYGPHTHSSVSTPSSSSESSTTSNSSIESSSLPHTSVSSTPESSITPSSNTISSSPTSDFSSVQSSSIMESSSVVASSSVINSSSIVDSSSSSASSLPSSMSSSLSSSMSSSLPSSMSSSLSSSLSSSLSSSMSSSMSSLFIIPPPYTTTRSSGSSIIDTEIVSFYSTTDSPGHTITGTTTTTLYGPHTHSSVSTPSSSSESSTTSNSSIESSSLPHTSVSSTPESSITPSSNTISSSPTSDFSSVQSSSIMESSSVVASSSVINSSSIVDSSSSSASSLPSSMPSSLPSSMSSSLSSSMSSSLSSSLSSSLSSSMSSSMSSLFIIPPPYTTTRSSGSSIIDTEIVSFYSTTDSPGHTITGTTTTTLYGPHTHSSVSTPSSSSESSTTSNSSIESSSLPHTSVSSTPESSITPSSNTISSSPTSDFSSVQSSSIMESSSVVASSSATQSSSVINSSSIVDSSSSSASSLPSSMPSSLPSSLSSSLSSSLSSSMSSSMSSLFIIPPPYTTTRSSGSSIIDTEIVSFYSTTDSPGHTITGTTTTTLYESSIYSSSSSTIQESELSNTSRTTMTSNSSVSISSTSSRSSFSNTKSSTIVISQSASLPDSKTDIILSTSSNIGYSSRSLLSDLGTSISDSDIHHSVLHSTESYSSNESGTNPFTSIASLSNFIPESSSHTSTALGSENSVISSDILTTMSHPVATNSGDKPTTPKRSEQVSTTMTSSGPTPDTSSFDTDGMSAYSRPEFTTNSLEVNKSSTSQLGNNKQTFSNLQLESTRPHSENEVDNNTRLLQSIQQSSTYGTNNVNPLSPTGSISIPLTEDGQGDNNNWNSPATNDLCTQISFNLTATTITVTDRITITDSIHDISSEVITSYIYQTIVDQKTVTQTVDGKSLANKMSSIPKPSSRSLIQPQPPVAIELQEGAASTSRVSLVSLFISIILVLL
# Key:
# Experiment in all cases: glycan array binding signal (z-score within array); higher = stronger binding
# Details in all cases: glycan notation: IUPAC condensed, linker removed
# [1] = target: Neu5Ac(a2-3)Gal(b1-4)GlcNAc(b1-6)GalNAc
# How it was run: (§1)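 Columns mapping to the same glycan were averaged after glycan names were converted to IUPAC-condensed notation. The data come from 3228 arrays in the Consortium for Functional Glycomics database, limited to those with an available protein sequence. Binding is reported as a within-array Z-score averaged across arrays of one protein sequence and across linkers.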
# [2] = target: Neu5Ac(a2-3)Gal(b1-4)GlcNAc(b1-6)[Gal(b1-3)]GalNAc
# How it was run: as §1
# [3] = target: Neu5Ac(a2-3)Gal(b1-4)GlcNAc(b1-6)[Neu5Ac(a2-3)Gal(b1-3)]GalNAc
# How it was run: as §1
# [4] = target: Neu5Ac(a2-3)Gal(b1-4)GlcNAc6S
# How it was run: as §1
# [5] = target: Neu5Ac(a2-3)Gal(b1-4)[Fuc(a1-3)]GlcNAc
# How it was run: as §1
# [6] = target: Neu5Ac(a2-3)Gal(b1-4)[Fuc(a1-3)]GlcNAc(b1-2)Man
# How it was run: as §1
# [7] = target: Neu5Ac(a2-3)Gal(b1-4)[Fuc(a1-3)]GlcNAc(b1-3)Gal
# How it was run: as §1
# [8] = target: Neu5Ac(a2-3)Gal(b1-4)[Fuc(a1-3)]GlcNAc(b1-3)Gal(b1-4)GlcNAc
# How it was run: as §1
# [9] = target: Neu5Ac(a2-3)Gal(b1-4)[Fuc(a1-3)]GlcNAc(b1-3)Gal(b1-4)[Fuc(a1-3)]GlcNAc(b1-3)Gal(b1-4)[Fuc(a1-3)]GlcNAc
# How it was run: as §1
# [10] = target: Neu5Ac(a2-3)Gal(b1-4)[Fuc(a1-3)]GlcNAc(b1-3)GalNAc
# How it was run: as §1
# [11] = target: Neu5Ac(a2-3)Gal(b1-4)[Fuc(a1-3)]GlcNAc(b1-6)[Gal(b1-3)]GalNAc
# How it was run: as §1
# [12] = target: Neu5Ac(a2-3)Gal(b1-4)[Fuc(a1-3)]GlcNAc(b1-6)[Neu5Ac(a2-3)Gal(b1-3)]GalNAc
# How it was run: as §1
# [13] = target: Neu5Ac(a2-3)Gal(b1-4)[Fuc(a1-3)]GlcNAc6S
# How it was run: as §1
# [14] = target: Neu5Ac(a2-3)Gal6S(b1-4)GlcNAc
# How it was run: as §1
# [15] = target: Neu5Ac(a2-3)Gal6S(b1-4)[Fuc(a1-3)]GlcNAc
# How it was run: as §1
# Neu5Ac(a2-3)GalNAc = target: Neu5Ac(a2-3)GalNAc
# How it was run: as §1
# [16] = target: Neu5Ac(a2-3)GalNAc(b1-4)GlcNAc
# How it was run: as §1
# [17] = target: Neu5Ac(a2-3)[GalNAc(b1-4)]Gal(b1-4)Glc
# How it was run: as §1
# [18] = target: Neu5Ac(a2-3)[GalNAc(b1-4)]Gal(b1-4)GlcNAc
# How it was run: as §1
# [19] = target: Neu5Ac(a2-3)[GalNAc(b1-4)]Gal(b1-4)GlcNAc(b1-3)GalNAc
# How it was run: as §1
# [20] = target: Neu5Ac(a2-3)[Neu5Ac(a2-6)]GalNAc
# How it was run: as §1
# Neu5Ac(a2-6)Gal = target: Neu5Ac(a2-6)Gal
# How it was run: as §1
binder,measurement,setting,value
B1,glycan array binding signal (z-score),[1],0.391
same,glycan array binding signal (z-score),[2],0.093
same,glycan array binding signal (z-score),[3],-2.35
same,glycan array binding signal (z-score),[4],-0.344
same,glycan array binding signal (z-score),[5],0.544
same,glycan array binding signal (z-score),[6],-1.08
same,glycan array binding signal (z-score),[7],1.41
same,glycan array binding signal (z-score),[8],0.339
same,glycan array binding signal (z-score),[9],-1.43
same,glycan array binding signal (z-score),[10],0.228
same,glycan array binding signal (z-score),[11],1.22
same,glycan array binding signal (z-score),[12],-1.17
same,glycan array binding signal (z-score),[13],0.176
same,glycan array binding signal (z-score),[14],-0.773
same,glycan array binding signal (z-score),[15],-0.355
same,glycan array binding signal (z-score),Neu5Ac(a2-3)GalNAc,-0.42
same,glycan array binding signal (z-score),[16],-0.432
same,glycan array binding signal (z-score),[17],-0.29
same,glycan array binding signal (z-score),[18],-0.82
same,glycan array binding signal (z-score),[19],-1.1
same,glycan array binding signal (z-score),[20],-0.108
same,glycan array binding signal (z-score),Neu5Ac(a2-6)Gal,-0.738

# Reprinted from the listing for reference:
binder,measurement,setting,value
B1,glycan array binding signal (z-score),[4],-0.344
same,glycan array binding signal (z-score),[5],0.544
